Drawing on patent publication US20250213687A1, this text covers binding for one molecule.

Amino acid sequences for entries named in this document (tags omitted). Residues count along the entry.
UniProt P10144, residues 21-247: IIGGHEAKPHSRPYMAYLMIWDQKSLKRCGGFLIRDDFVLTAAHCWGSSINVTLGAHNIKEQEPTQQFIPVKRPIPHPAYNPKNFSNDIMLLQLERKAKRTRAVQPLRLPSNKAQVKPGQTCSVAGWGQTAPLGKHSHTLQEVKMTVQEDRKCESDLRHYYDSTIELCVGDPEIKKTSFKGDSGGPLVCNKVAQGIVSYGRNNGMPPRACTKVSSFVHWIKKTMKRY

Results are given in words; binding and its absence hold for the method and conditions named. Some entries that bind do so weakly or less than the wild type.

The experiment concerns the target Granzyme B (GzmB) (UniProt P10144). Put plainly: SDS-PAGE / western blot of T cell lysates probed with anti-SB9 antibody 7D8.

B1: SERPINB9 (SB9) (protein)
chain: METLSNASGTFAIRLLKILCQDNPSHNVFCSPVSISSALAMVLLGAKGNTATQMAQALSLNTEEDIHRAFQSLLTEVNKAGTQYLLRTANRLFGEKTCQFLSTFKESCLQFYHAELKELSFIRAAEESRKHINTWVSKKTEGKIEELLPGSSIDAETRLVLVNAIYFKGKWNEPFDETYTREMPFKINQEEQRPVQMMYQEATFKLAHVGEVRAQLLELPYARKELSLLVLLPDDGVELSTVEKSLTFEKLTAWTKPDCMKSTEVEVLLPKFKLQEDYDMESVLRHLGIVDAFQQGKADLSAMSAERDLCLSKFVHKSFVEVNEEGTEAAAASSCFVVAECCMESGPRFCADHPFLFFIRHNRANSILFCGRFSSP
In the case of B1, the binding result is recorded as “binds”.
